Source: patent publication US8569504B2, “Imidazopyridine compound” (Ono Pharmaceutical Co., Ltd., priority 2009, dated 2013)

system: HepG2 human liver cancer cell lines; test: Measurement of cell toxicity using HepG2 human liver cancer cell lines (ATP, Celltiter Glo); type: cell-based; conditions: ratio of HepG2 cell toxicity (Table 2) to human chymase inhibitory activity (Table 1)
Procedure: The cells were then exposed to the compound of the present invention and the comparative compounds for 24 hours. The compound of the present invention and the comparative compounds were dissolved with DMSO, and then diluted 100 times with culture liquid comprising L-glutamine, non-essential amino acids and 1% bovine fetal serum which were added to minimum essential medium (MEM). […] The cells were dissolved with the assay buffer in the measurement kit, and the ATP concentration released from the cells was measured based on luciferin-luciferase enzyme activity. Light emission was measured with a SpectraMax plate reader (Molecular Device).

Structure (SMILES) | IC10 (cell toxicity data)/IC90 (chymase inhibitory activity data) | IC50 (cell toxicity data)/IC50 (chymase inhibitory activity data)
Cc1cccc2[nH]cc(Cc3c(-c4ccc5ccccc5c4C(=O)O)nc4ccccn34)c12 [Example 7, 2-[3-[(4-methyl-1H-indol-3-yl)methyl]imidazo[1,2-a]pyridin-2-yl]-1-naphthoic acid] | 921 | 132000
Cc1cccc2scc(Cc3c(SCCCC(=O)O)nc4ccccn34)c12 [Comparative Compound 2, 4-[3-(4-methyl-benzo[b]thiophen-3-ylmethyl)-imidazo[1,2-a]pyridin-2-ylsulfanyl]butanoic acid, reference compound] | 24 | 644
CCn1cc(Cc2c(-c3ccccc3C(=O)O)nc3ccccn23)c2c(C)cccc21 [Example 15, 2-{3-[(1-ethyl-4-methyl-1H-indol-3-yl)methyl]imidazo[1,2-a]pyridin-2-yl}benzoic acid] | 479 | 8900
Cc1c(F)ccc2[nH]cc(Cc3c(-c4ccccc4C(=O)O)nc4ccccn34)c12 [Example 19, 2-{3-[(5-fluoro-4-methyl-1H-indol-3-yl)methyl]imidazo[1,2-a]pyridin-2-yl}benzoic acid] | 583 | 22455
Cc1ccc2nc(-c3ccccc3C(=O)O)c(Cc3cn(C)c4cccc(C)c34)n2c1 [Example 11, 2-{3-[(1,4-dimethyl-1H-indol-3-yl)methyl]-6-methylimidazo[1,2-a]pyridin-2-yl}benzoic acid] | 919 | 17391
Cc1cccc2c1c(Cc1c(-c3ccccc3C(=O)O)nc3ccccn13)cn2C [Example 13, 2-{3-[(1,4-dimethyl-1H-indol-3-yl)methyl]imidazo[1,2-a]pyridin-2-yl}benzoic acid] | 675 | 15143
O=C(O)c1ccccc1Sc1nc2ccccc2n1Cc1cccc2ccccc12 [Comparative Compound 3, 2-{[1-(1-naphthylmethyl)-1H-benzimidazol-2-yl]thio}benzoic acid, reference compound] | 18 | 308
Cc1cccc2c1c(Cc1c(-c3ccc4ccccc4c3C(=O)O)nc3ccccn13)cn2CCN1CCOCC1 [Example 23-(4), 2-[3-({4-methyl-1-[2-(4-morpholinyl)ethyl]-1H-indol-3-yl}methyl)imidazo[1,2-a]pyridin-2-yl]-1-naphthoic acid] | 9875 | 86500
Cc1cccc2[nH]cc(Cc3c(-c4ccc5ccccc5c4C(=O)O)nc4ccc(F)cn34)c12 [Example 16, 2-{6-fluoro-3-[(4-methyl-1H-indol-3-yl)methyl]imidazo[1,2-a]pyridin-2-yl}-1-naphthoic acid] | 4833 | 131000
Cc1cccc2scc(Cn3c(SCCCC(=O)O)nc4ccccc43)c12 [Comparative Compound 1, 4-(1-((4-methylbenzothiophen-3-yl)methyl)benzimidazol-2-ylthio)butanoic acid, reference compound] | 54 | –
Cc1cccc2c1c(Cn1c(Sc3ccccc3C(=O)O)nc3ccccc31)cn2C [Comparative Compound 4, 2-([1-[(1,4-dimethyl-1H-indol-3-yl)methyl]-1H-benzimidazol-2-yl]thio)benzoic acid, reference compound] | 67 | 1120
